This note sets out measurements from paper PMC7819943, “Rice protein-binding microarrays: a tool to detect cis-acting elements near promoter regions in rice”.

The list shows a part of the results.

The target in this assay is T1, OsSMF1 (Oryza sativa, UniProt Q6ZLB0 1-436).
T1 sequence: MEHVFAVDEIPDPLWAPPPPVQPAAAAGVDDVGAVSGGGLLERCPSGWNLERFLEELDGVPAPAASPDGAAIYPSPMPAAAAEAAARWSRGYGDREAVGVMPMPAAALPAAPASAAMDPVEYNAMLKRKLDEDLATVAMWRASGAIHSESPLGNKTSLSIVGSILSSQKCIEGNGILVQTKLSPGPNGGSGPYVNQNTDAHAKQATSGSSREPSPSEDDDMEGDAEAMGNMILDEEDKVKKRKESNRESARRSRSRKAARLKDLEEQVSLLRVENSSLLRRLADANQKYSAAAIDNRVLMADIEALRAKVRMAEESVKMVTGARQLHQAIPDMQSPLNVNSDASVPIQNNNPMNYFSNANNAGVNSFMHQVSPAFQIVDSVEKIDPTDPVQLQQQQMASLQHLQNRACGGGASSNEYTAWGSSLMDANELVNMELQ
Nature of the assay: protein-binding microarray (RPBM); PBS, 2% BSA, 51.3 ng/ul salmon testes DNA, 50 uM zinc acetate, 200 nM TF, 25 C, 1 h; high values mean tight binding. Particulars: protein: recombinant; tags: N-terminal polyhistidine and DsRed monomer fusion (pET32a); chain copies: 2; label: CyDye5-dUTP incorporated in the synthesized complementary strand; 3' TTTTT single-stranded linker to array surface; dsDNA, one strand shown. In a few lines: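 Binding signal here means per-feature fluorescence intensity in arbitrary units. The values were read on an Axon 4000B scanner after a custom Agilent array, double-stranded by primer extension with Cy5-dUTP, was incubated with 200 nM protein at 25 °C for 1 h in PBS with 2% BSA, salmon testes DNA and 50 µM zinc acetate, then washed. The proteins were transcription factors with an N-terminal polyhistidine tag and DsRed, expressed in E. coli BL21-CodonPlus and purified on Ni–NTA.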
On to “TGATTGTAACTGGATGACATGGACTATGTTTTGATGAATTCGGAGTCACCTAGTGCAG”, for which the binding signal was 4690 fluorescence intensity (a.u.).

As for “CAGCGCGGCGCGTGCCACGCAATCTCGACCACTGTCTACGCGGAGTCACCTAGTGCAG”, the binding signal is 6670 fluorescence intensity (a.u.).

For “TTATTTAAAGGAGGCGGGGTAGGAGGGAGAGGGAGATAGGCGGAGTCACCTAGTGCAG”, the binding signal was 32400 fluorescence intensity (a.u.).

As to “CCAACATTGACCAGTCGGCACTCACACCACTATATCCCTTCGGAGTCACCTAGTGCAG”, the binding signal is 3930 fluorescence intensity (a.u.).

As to “ATCACCATCCACTAACAAGATGTCACATCATCATCCACTACGGAGTCACCTAGTGCAG”, the binding signal was 3650 fluorescence intensity (a.u.).

For the sequence “TTCATCGGTGACCAGAAAATCATCATGCAGTCTCTAAGGTCGGAGTCACCTAGTGCAG”, the binding signal was 3250 fluorescence intensity (a.u.).

Take “CCCGGTGGATGACGACCTGCTCCCAGTCCTCGTGGAGGTACGGAGTCACCTAGTGCAG”: the binding signal was 3240 fluorescence intensity (a.u.).

“GACCACGACCCACGTCACCTACCCCGGCAAGACCAGAGCGCGGAGTCACCTAGTGCAG”: the binding signal is 14000 fluorescence intensity (a.u.).

In the case of “ACGTGTGTTAAGGGTGTGTGTAGTATATGCACGTGATGTACGGAGTCACCTAGTGCAG”, the binding signal was 3320 fluorescence intensity (a.u.).

For “GTCGCGCCGACTCACTCTCGCCGCCGCCGCCGCCGCCGCCCGGAGTCACCTAGTGCAG”, the binding signal was 3330 fluorescence intensity (a.u.).

For “AGAAATTAAACTCTAACTAGTATACGTATATTCACAGTCACGGAGTCACCTAGTGCAG”, the binding signal was 3270 fluorescence intensity (a.u.).

Turning to “AAAAGTGTGATCCATCCACGTGGTGTTTTGAGCCACTGCACGGAGTCACCTAGTGCAG”, the binding signal was 7230 fluorescence intensity (a.u.).

On to “ATCTATATACTTTACTTCATGATCTGGCAACTGATCAGGTCGGAGTCACCTAGTGCAG”, for which the binding signal was 5410 fluorescence intensity (a.u.).

As to “GAACGGTCAAATAGCCGTTAGTGCCACGTGGCGCCTTCCCCGGAGTCACCTAGTGCAG”, the binding signal was 25100 fluorescence intensity (a.u.).

For “CTCTCCTCGGGTTCGACTCTCCACCGCTGTCACTCACTCTCGGAGTCACCTAGTGCAG”, the binding signal was 4340 fluorescence intensity (a.u.).

Take “AAAGCCGCTATTCCTGTGAGGCCCTGACGCCGACCGAAACCGGAGTCACCTAGTGCAG”: the binding signal is 3270 fluorescence intensity (a.u.).

On to “TCGAACACCGCCAGGGCCTTCTCGGACACGCTCTTGTCAGCGGAGTCACCTAGTGCAG”, for which the binding signal is 3850 fluorescence intensity (a.u.).

For “CGACGGAGGTCGGATCGAAGGAGGGGAGCGGTGGTGACGACGGAGTCACCTAGTGCAG”, the binding signal is 3250 fluorescence intensity (a.u.).

Consider “ATATATGTTTAGATTTGTAGGCCTATGATACGTCAAATTTCGGAGTCACCTAGTGCAG”, for which the binding signal was 3180 fluorescence intensity (a.u.).

“TCTCCCACGATTCGCCTTACATGTTTATTACACGCCATGACGGAGTCACCTAGTGCAG”: the binding signal is 3670 fluorescence intensity (a.u.).

With “ACCACGACCACCACAACACCACCACCTCTTCTCCTAGTCACGGAGTCACCTAGTGCAG”, the binding signal is 3570 fluorescence intensity (a.u.).

For “TGGTTTTGCTAGTTGTGCCCATGGCGATTAAGGACCGGTTCGGAGTCACCTAGTGCAG”, the binding signal is 3380 fluorescence intensity (a.u.).

“TGGACGTCCTCAGAAAACCATGACGACTCAATGGCGGGAACGGAGTCACCTAGTGCAG”: the binding signal is 3200 fluorescence intensity (a.u.).

On to “CTTGTACTGATGTGGAGGAGGAAGGTGTTGTTGCTTGTATCGGAGTCACCTAGTGCAG”, for which the binding signal is 4160 fluorescence intensity (a.u.).

With “CAAACGATCCTAAACTGCCACCTAACGCTTCCTACGAACACGGAGTCACCTAGTGCAG”, the binding signal was 3980 fluorescence intensity (a.u.).

Consider “CCCAGATCCCAAGGGGCACACGTGGCAGCACGGGGCGTCACGGAGTCACCTAGTGCAG”, for which the binding signal was 9760 fluorescence intensity (a.u.).

On to “TACGTGGGTGCTGCATGGCTTAGTGAGTAGTGGTTGGCAGCGGAGTCACCTAGTGCAG”, for which the binding signal was 3480 fluorescence intensity (a.u.).

“AAATGTAAATATTAATGAATCGTTTGTTTACGATGAATAACGGAGTCACCTAGTGCAG”: the binding signal is 6270 fluorescence intensity (a.u.).

For “GTTTGCCATCCACGATATCCGTCGATTCGCGTCACGTCAGCGGAGTCACCTAGTGCAG”, the binding signal was 8770 fluorescence intensity (a.u.).

With “AGCTCGTCGTTGCCCACCCGTGCTCGCCCGTCGTGTGGACCGGAGTCACCTAGTGCAG”, the binding signal was 3770 fluorescence intensity (a.u.).

On to “GTCGATCACCTGGGTCCACACGTCAGTGTCTAATCCAGAACGGAGTCACCTAGTGCAG”, for which the binding signal was 5120 fluorescence intensity (a.u.).

Take “TCAAATGTTACTACACGTAGTACGCTAGCACGTCTACAGGCGGAGTCACCTAGTGCAG”: the binding signal was 3870 fluorescence intensity (a.u.).

For “CCAAATATTTGACGTGACAGCATGAAAATTTTCGTTTTGGCGGAGTCACCTAGTGCAG”, the binding signal was 3980 fluorescence intensity (a.u.).

On to “AAAATTGACTGTACAATGACATTTTGTAGAACTTGCACTCCGGAGTCACCTAGTGCAG”, for which the binding signal is 3540 fluorescence intensity (a.u.).

For the sequence “CGGCACGCGCGAAACGAGCAGTTTCTATCAGCACGTGATGCGGAGTCACCTAGTGCAG”, the binding signal is 21500 fluorescence intensity (a.u.).

In the case of “GGATGCATGCATGCTGATGATGTCAGGCTGATACGTGCGTCGGAGTCACCTAGTGCAG”, the binding signal was 7340 fluorescence intensity (a.u.).

On to “AGAGTACATTTTACGGATGCGTAATCCTAAGTAAGCACATCGGAGTCACCTAGTGCAG”, for which the binding signal is 3340 fluorescence intensity (a.u.).

With “GAAGTCTCTTGTCGTCACGCTTTTGGAGCACTTTGGACGCCGGAGTCACCTAGTGCAG”, the binding signal is 4380 fluorescence intensity (a.u.).

As for “TTGCTGCAATTCCACATGGAGAAACGAATCTTCATCAGTTCGGAGTCACCTAGTGCAG”, the binding signal is 24300 fluorescence intensity (a.u.).

For the sequence “AGCCGCTCCCCGAAGCTGTCGCTGGCGTAATGATGCGAGCCGGAGTCACCTAGTGCAG”, the binding signal was 3420 fluorescence intensity (a.u.).

Regarding “TAAACTTTTGACCTTGTCAGTGTCAGATGACATAATGGCACGGAGTCACCTAGTGCAG”, the binding signal is 3960 fluorescence intensity (a.u.).

As to “CGATCCTTATCCTATCACCAGCCGCCCACCTATAAATGGCCGGAGTCACCTAGTGCAG”, the binding signal is 22900 fluorescence intensity (a.u.).
